# Experimental data reported in PubChem BioAssay AID540303 (National Center for Advancing Translational Sciences (NCATS), 2011).
# About 1,000 (0.3%) of roughly 330,000 compounds were called active. Inconclusive means that the source gave no clear call. Such entries were picked first, then a sample of the others. The call rests on the fitted dose curve; in most records, active means well fitted inhibition curve with a large enough effect; inconclusive means small, poorly fitted or top-dose-only effect; inactive means no such curve, though single readings can be large or run the other way; tested in mouse RAW 264.7 cells. Potencies beside an inconclusive call are fits to weak or partial responses and may not hold up.
# Experiment: qHTS for Inhibitors of Cell Surface uPA Generation; further: nearly all actives have a fitted effect of over 55% in size
# Details: cell surface uPA generation assay; series mostly up to 38.3 µM
# How it was run: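 Using RAW 264.7 macrophages, the screen measures whether compounds keep cellular ATP up by preventing uPA-driven LF translocation. Treatment lasted 24 h at 37 C, with a final top concentration of 38.3 uM, and luminescence was the readout.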
# Potency means the concentration at half of the fitted maximal effect.
row,Compound,Potency
1,Cc1ccccc1-c1cc(=O)c2ccccc2o1,"inconclusive: 12.6 µM [inhibitor, single point]"
2,CCCNC(=O)c1ccc2c(=O)c(O)c(-c3ccc(OC)cc3)[nH]c2c1,"inconclusive: 8.91 µM [inhibitor, single point]"
3,COCCCN(C(=O)Cn1ncc2c(=O)oc3ccc(C)cc3c21)C(C)c1ccncc1 (stereo not given),"inconclusive: 5.62 µM [inhibitor, partial curve, poor fit]"
4,Nc1ccccc1C#Cc1ccccc1,"inconclusive: 4.47 µM [inhibitor, partial curve, poor fit]"
5,Cc1cccc(/C=N/NC(=O)c2cc(C)nc3ccccc23)n1,"inconclusive: 1 µM [inhibitor, single point]"
6,O=C(CCC(=O)N1CCOc2ccc(Cl)cc21)NCCCN1CCC(Cc2ccccc2)CC1,"inconclusive: 12.6 µM [inhibitor, single point]"
7,CC(=O)NC(CC(=O)N(C)Cc1cccc(Cl)c1Cl)c1ccccc1 (stereo not given),inactive
8,O=C(NCCS(=O)(=O)N1CCN(c2ccccc2)CC1)C1CC(=O)N(c2ccccc2)C1 (stereo not given),inactive
9,COc1cc2c(cc1OC)C(c1ccc(Br)cc1)CC(=O)N2 (stereo not given),inactive
10,O=C(c1cc(-c2ccco2)nc2ccccc12)N1CCN(Cc2ccccc2)CC1,"inconclusive: 2.51 µM [inhibitor, partial curve]"
11,Clc1ncccc1-c1nnn(-c2ccccc2)n1,"inconclusive: 10 µM [inhibitor, partial curve, poor fit]"
12,CCOC(=O)c1sc(SCC(=O)Nc2ccc(N(C)C)cc2)nc1N,"inconclusive: 0.708 µM [inhibitor, full curve, poor fit]"
13,Cc1cc(C(=O)COC(=O)c2ccc(O)cc2O)c(C)n1-c1ccc(OC(F)F)cc1,"inconclusive: 11.2 µM [inhibitor, single point]"
14,COc1ccc(-c2oc3cc(O)c(OC)c(O)c3c(=O)c2OC)cc1,"inconclusive: 28.2 µM [inhibitor, single point]"
15,CCN1CCN(CC(=O)N2CCCC(C(=O)c3ccc(Oc4ccccc4)cc3)C2)CC1 (stereo not given),"inconclusive: 11.2 µM [inhibitor, single point]"
16,O=C(/C=C/c1ccc2ccccc2n1)c1cc(Br)ccc1O,"inconclusive: 3.98 µM [inhibitor, partial curve]"
17,O=C(NC(=S)Nc1ccc(N2CCOCC2)cc1)c1ccc2c(c1)OCCO2,"inconclusive: 28.2 µM [inhibitor, single point]"
18,C=CCOC(=O)C1=C(C)NC(SCC(N)=O)=C(C#N)C1c1ccc(C)cc1 (stereo not given),"inconclusive: 11.2 µM [inhibitor, partial curve, poor fit]"
19,O=C1C=C(c2ccc3cc[nH]c3c2)C[C@@H](c2ccc3c(c2)OCO3)C1,"inconclusive: 7.94 µM [inhibitor, single point]"
20,CC(=O)Nc1cccc(-c2cc(C)c3cc4c(cc3n2)OCO4)c1,inactive
21,CCOc1ccc(NC(=O)c2nn(C)cc2Br)cc1,"inconclusive: 5.01 µM [inhibitor, partial curve, poor fit]"
22,Oc1ccc(Nc2ncnc3ccccc23)cc1,"inconclusive: 4.47 µM [inhibitor, partial curve, poor fit]"
23,NS(=O)(=O)c1ccc(N2N=C(c3ccccc3)CC2c2cccc(Br)c2)cc1 (stereo not given),"inconclusive: 11.2 µM [inhibitor, single point]"

# Arranged by molar mass (largest number first): part of the list above
row,Compound,Potency
8,O=C(NCCS(=O)(=O)N1CCN(c2ccccc2)CC1)C1CC(=O)N(c2ccccc2)C1 (stereo not given),inactive
3,COCCCN(C(=O)Cn1ncc2c(=O)oc3ccc(C)cc3c21)C(C)c1ccncc1 (stereo not given),"inconclusive: 5.62 µM [inhibitor, partial curve, poor fit]"
13,Cc1cc(C(=O)COC(=O)c2ccc(O)cc2O)c(C)n1-c1ccc(OC(F)F)cc1,"inconclusive: 11.2 µM [inhibitor, single point]"
17,O=C(NC(=S)Nc1ccc(N2CCOCC2)cc1)c1ccc2c(c1)OCCO2,"inconclusive: 28.2 µM [inhibitor, single point]"
9,COc1cc2c(cc1OC)C(c1ccc(Br)cc1)CC(=O)N2 (stereo not given),inactive
21,CCOc1ccc(NC(=O)c2nn(C)cc2Br)cc1,"inconclusive: 5.01 µM [inhibitor, partial curve, poor fit]"
5,Cc1cccc(/C=N/NC(=O)c2cc(C)nc3ccccc23)n1,"inconclusive: 1 µM [inhibitor, single point]"
11,Clc1ncccc1-c1nnn(-c2ccccc2)n1,"inconclusive: 10 µM [inhibitor, partial curve, poor fit]"
1,Cc1ccccc1-c1cc(=O)c2ccccc2o1,"inconclusive: 12.6 µM [inhibitor, single point]"

# The listing continues:

row,Compound,Potency
1,CC(C)CC(=O)Nc1ccccc1N1CCCC1,inactive
2,CCOC(=O)N1CCN(c2c(NCc3ccc(Cl)cc3)c(=O)c2=O)CC1,active: 2.82 µM
3,Cc1ccc2c(c1)c1c(n2CC(O)CNC2CCCC2)CCCC1 (stereo not given),"inconclusive: 8.91 µM [inhibitor, single point]"
4,CCCCn1nnc(NC(=S)NC(=O)c2cccs2)n1,inactive
5,O=S(=O)(c1ccc2c(c1)OCCO2)N1CCC(c2nc3ccc(Cl)cc3[nH]2)CC1,"inconclusive: 12.6 µM [inhibitor, single point]"
6,CCOC(=O)C1CCCN(C(=O)c2ccc(C)c(S(=O)(=O)N3CCCCC3)c2)C1 (stereo not given),"inconclusive: 12.6 µM [inhibitor, single point]"
7,CCN(CC)CCCC(C)Nc1nccc2c(Cl)cccc12 (stereo not given),inactive
8,COc1ccc(CCN(C)c2ncnc3sccc23)cc1OC,"inconclusive: 20 µM [inhibitor, partial curve, poor fit]"
9,CCCNC(=O)c1cc(S(=O)(=O)N2CCc3ccccc32)cn1C,"inconclusive: 10 µM [inhibitor, partial curve, poor fit]"
10,COc1ccc(C(=O)CN2Cc3ccccc3C2=N)cc1,"inconclusive: 7.08 µM [inhibitor, single point]"
11,CSc1ncccc1C(=O)N1CCCC(CCC(=O)NCc2ccccc2F)C1 (stereo not given),"inconclusive: 5.01 µM [inhibitor, single point]"
12,O=C(Nc1ncc([N+](=O)[O-])s1)c1ccccc1Br,"inconclusive: 28.2 µM [inhibitor, single point]"
13,CC(C)[C@H](NC(=O)OCc1ccccc1)C(=O)OCC(=O)NC1(C#N)CCCC1,"inconclusive: 2.24 µM [inhibitor, full curve, poor fit]"
14,O=C(NNc1nc(-c2ccc(Br)cc2)cs1)c1ccco1,"inconclusive: 12.6 µM [inhibitor, single point]"
15,CCOc1ccc(/C=C2/SC(=O)NC2=S)cc1,"inconclusive: 10 µM [inhibitor, single point]"
16,CN(CCO)c1cnccn1,inactive
17,CCOC(=O)c1c(NC(=O)C2CCCN2S(=O)(=O)c2cccc3nsnc23)sc(C)c1C (stereo not given),inactive
18,O=[N+]([O-])c1cc2c(cc1/C=N/Nc1nc(Nc3ccccc3)nc(N3CCCCC3)n1)OCO2,inactive
19,O=C1C=C(c2ccccc2Oc2ccccc2)C[C@@H](c2ccc3c(c2)OCO3)C1,inactive
20,Cc1cccn2c(N)c(-c3ccccc3)nc12,inactive
21,N#Cc1c(N2CCN(c3ccc(F)cc3)CC2)nc(N)c2c(N)nc3c(c12)CC(=O)N3C1CC1,inactive
22,CN1CCCC1CCNc1ccc2sc3ccccc3c(=O)c2c1 (stereo not given),"inconclusive: 7.94 µM [inhibitor, single point]"
